According to the supplement of paper PMC7666118:
This is one part of the list.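 How the source made its calls: active = dose-dependent thermal stabilisation significant by F-test of dose-response against flat model at 10% FDR; inactive = not significant.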

Sequences of proteins named here, by UniProt entry; tags and fusion partners are left off. A change or cut given only in a name is not applied to a line headed by its entry.
UniProt Q5XUX1: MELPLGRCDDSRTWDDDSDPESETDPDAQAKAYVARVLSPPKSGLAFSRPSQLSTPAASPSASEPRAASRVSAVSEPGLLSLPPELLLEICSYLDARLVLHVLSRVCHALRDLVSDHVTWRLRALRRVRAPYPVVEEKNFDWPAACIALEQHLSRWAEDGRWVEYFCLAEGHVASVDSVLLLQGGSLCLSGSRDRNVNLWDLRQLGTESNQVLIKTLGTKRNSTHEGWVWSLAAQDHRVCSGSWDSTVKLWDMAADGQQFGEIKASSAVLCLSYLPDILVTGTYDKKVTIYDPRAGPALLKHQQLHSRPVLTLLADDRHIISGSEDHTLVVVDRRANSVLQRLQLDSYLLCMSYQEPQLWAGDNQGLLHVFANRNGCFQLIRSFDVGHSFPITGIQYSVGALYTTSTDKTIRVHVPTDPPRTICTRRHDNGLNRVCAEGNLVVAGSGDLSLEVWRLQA
UniProt O43427: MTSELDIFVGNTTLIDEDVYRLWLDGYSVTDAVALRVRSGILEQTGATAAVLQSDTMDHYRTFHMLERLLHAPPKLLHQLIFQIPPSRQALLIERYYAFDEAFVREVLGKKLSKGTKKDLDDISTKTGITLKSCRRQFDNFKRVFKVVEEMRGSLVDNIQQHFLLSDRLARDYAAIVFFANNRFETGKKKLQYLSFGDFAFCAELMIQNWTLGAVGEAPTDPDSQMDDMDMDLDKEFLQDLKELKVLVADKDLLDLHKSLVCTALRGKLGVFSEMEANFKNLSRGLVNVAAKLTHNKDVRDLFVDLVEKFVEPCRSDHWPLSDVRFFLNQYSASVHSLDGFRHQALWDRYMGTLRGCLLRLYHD
UniProt Q5JSP0: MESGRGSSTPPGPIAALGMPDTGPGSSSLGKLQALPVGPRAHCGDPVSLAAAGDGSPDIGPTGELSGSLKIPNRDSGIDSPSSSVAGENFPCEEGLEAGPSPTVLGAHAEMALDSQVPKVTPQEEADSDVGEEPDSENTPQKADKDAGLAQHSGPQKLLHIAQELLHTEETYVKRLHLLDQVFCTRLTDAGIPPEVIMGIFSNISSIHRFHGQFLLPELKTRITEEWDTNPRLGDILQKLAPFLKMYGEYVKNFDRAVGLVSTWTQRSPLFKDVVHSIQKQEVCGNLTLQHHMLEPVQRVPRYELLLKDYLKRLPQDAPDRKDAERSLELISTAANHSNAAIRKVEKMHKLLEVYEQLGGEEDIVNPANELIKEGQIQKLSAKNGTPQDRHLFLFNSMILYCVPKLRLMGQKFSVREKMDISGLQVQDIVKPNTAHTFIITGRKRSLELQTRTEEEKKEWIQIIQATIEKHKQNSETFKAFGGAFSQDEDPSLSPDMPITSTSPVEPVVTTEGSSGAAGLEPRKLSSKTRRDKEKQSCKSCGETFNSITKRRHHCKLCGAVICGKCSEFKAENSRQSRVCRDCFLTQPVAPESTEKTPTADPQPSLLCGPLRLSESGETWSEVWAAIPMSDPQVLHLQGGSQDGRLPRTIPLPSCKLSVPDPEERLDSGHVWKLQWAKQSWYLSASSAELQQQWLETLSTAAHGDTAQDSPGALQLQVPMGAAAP
UniProt Q92979: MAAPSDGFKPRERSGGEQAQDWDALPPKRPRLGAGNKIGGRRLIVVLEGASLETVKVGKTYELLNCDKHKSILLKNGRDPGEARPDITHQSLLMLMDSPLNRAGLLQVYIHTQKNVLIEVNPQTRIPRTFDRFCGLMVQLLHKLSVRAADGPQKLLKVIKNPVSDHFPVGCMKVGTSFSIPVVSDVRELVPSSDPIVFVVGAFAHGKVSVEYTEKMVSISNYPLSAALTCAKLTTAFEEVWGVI
UniProt O15117, whole entry: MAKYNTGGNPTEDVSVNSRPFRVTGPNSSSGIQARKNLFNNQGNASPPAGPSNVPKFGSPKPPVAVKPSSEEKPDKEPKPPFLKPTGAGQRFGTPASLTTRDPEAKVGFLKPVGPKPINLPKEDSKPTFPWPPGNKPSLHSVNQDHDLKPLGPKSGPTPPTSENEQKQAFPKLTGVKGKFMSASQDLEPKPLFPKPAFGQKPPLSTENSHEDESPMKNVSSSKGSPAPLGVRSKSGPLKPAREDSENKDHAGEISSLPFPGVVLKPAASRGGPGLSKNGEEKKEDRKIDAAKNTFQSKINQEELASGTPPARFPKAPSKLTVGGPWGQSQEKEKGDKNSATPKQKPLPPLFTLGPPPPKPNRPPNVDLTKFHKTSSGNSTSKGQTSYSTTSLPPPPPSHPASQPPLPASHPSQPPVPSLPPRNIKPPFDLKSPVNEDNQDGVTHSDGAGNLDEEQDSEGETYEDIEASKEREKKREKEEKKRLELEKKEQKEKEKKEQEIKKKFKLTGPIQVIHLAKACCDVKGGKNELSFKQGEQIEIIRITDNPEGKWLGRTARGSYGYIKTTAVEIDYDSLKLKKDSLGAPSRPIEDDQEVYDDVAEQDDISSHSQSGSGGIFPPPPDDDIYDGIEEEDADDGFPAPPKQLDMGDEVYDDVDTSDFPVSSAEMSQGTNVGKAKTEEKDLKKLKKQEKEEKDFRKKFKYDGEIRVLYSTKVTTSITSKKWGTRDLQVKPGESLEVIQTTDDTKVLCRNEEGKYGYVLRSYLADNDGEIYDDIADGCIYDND
UniProt P13804: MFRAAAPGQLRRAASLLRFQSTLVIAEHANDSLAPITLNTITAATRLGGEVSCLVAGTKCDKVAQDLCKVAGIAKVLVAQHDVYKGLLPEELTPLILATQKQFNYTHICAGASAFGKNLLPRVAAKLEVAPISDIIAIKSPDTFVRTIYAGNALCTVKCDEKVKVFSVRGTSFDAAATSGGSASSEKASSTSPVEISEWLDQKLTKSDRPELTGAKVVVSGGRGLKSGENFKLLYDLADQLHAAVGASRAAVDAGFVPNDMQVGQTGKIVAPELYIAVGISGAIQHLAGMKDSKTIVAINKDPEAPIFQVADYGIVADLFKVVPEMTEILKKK
UniProt Q96CP2: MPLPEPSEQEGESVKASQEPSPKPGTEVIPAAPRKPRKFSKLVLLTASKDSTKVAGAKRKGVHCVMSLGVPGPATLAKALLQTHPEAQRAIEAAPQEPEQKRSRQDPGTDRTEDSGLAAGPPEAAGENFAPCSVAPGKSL
UniProt Q9HC35: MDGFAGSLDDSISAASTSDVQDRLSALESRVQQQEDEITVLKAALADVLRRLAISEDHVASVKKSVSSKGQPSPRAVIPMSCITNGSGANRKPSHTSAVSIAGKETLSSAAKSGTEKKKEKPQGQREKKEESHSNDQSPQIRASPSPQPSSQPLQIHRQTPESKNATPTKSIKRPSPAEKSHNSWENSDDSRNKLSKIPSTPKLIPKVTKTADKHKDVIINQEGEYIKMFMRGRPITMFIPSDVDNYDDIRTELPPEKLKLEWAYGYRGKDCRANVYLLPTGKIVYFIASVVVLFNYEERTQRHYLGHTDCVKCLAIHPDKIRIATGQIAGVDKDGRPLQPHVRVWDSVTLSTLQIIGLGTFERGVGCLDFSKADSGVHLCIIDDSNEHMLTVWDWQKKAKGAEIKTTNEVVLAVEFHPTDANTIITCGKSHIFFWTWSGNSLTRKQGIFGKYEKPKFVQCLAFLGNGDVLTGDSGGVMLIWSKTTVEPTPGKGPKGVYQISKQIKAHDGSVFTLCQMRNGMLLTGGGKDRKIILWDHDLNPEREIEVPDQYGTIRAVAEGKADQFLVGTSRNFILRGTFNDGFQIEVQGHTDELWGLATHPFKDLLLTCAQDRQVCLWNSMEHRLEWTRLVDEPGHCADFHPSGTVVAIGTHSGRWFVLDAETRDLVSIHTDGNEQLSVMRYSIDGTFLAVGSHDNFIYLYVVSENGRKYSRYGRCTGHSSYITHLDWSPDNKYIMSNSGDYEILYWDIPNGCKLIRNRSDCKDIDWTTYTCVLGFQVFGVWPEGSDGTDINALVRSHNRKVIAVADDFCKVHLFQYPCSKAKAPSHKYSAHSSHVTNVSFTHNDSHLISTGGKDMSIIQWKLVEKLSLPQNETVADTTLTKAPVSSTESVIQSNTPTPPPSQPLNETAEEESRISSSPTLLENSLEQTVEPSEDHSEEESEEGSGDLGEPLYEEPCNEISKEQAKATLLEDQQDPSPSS

Compound: Nc1nc2c(ncn2[C@@H]2O[C@H](COP(=O)(O)OP(=O)(O)OP(=O)(O)O)[C@@H](O)[C@H]2O)c(=O)[nH]1
Experiment: dose-dependent thermal stabilisation call (2D-TPP, DLPTP, 10% FDR) (binary (1 = stabilised)); higher = stabilised by the compound
Details: system: Jurkat gel-filtered lysate; concentration range 1-500 µM

Target | dose-dependent thermal stabilisation call
FBXW9 (UniProt Q5XUX1) | inactive: 0
FRG1 (UniProt Q14331) | inactive: 0
FIBP (UniProt O43427) | active: 1
FGD3 (UniProt Q5JSP0) | inactive: 0
EMG1 (UniProt Q92979) | inactive: 0
FYB (UniProt O15117) | inactive: 0
ETFA (UniProt P13804) | inactive: 0
FLYWCH2 (UniProt Q96CP2) | inactive: 0
EML4 (UniProt Q9HC35) | inactive: 0

Given in CSV form: entries from further up
Target,dose-dependent thermal stabilisation call
FGD3 (UniProt Q5JSP0),inactive: 0
FYB (UniProt O15117),inactive: 0
